# According to the supplement of paper PMC8728848:
# The other results are listed elsewhere or left out.
# Experiments:
# Assay in all cases: glycan array binding signal (z-score within array); higher = stronger binding
# Settings in all cases: glycan notation: IUPAC condensed, linker removed
# [1] = target: GlcNAc(b1-2)Gal(b1-3)GalNAc
# Summary of the method: (§1)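 Glycan array binding is given as a within-array Z-score, which can be read as non-binding when negative. The arrays, 3228 of them, came from the Consortium for Functional Glycomics database and were retained only where the protein sequence was available. Z-scores were averaged across arrays of the same protein sequence at different concentrations or buffers and across linkers.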
# [2] = target: GlcNAc(b1-2)Man(a1-3)[GlcNAc(b1-2)Man(a1-6)]Man(b1-4)GlcNAc(b1-4)GlcNAc
# Summary of the method: as §1
# [3] = target: GlcNAc(b1-2)Man(a1-3)[GlcNAc(b1-2)Man(a1-6)]Man(b1-4)GlcNAc(b1-4)[Fuc(a1-6)]GlcNAc
# Summary of the method: as §1
# [4] = target: GlcNAc(b1-2)Man(a1-3)[GlcNAc(b1-4)][GlcNAc(b1-2)Man(a1-6)]Man(b1-4)GlcNAc(b1-4)GlcNAc
# Summary of the method: as §1
# [5] = target: GlcNAc(b1-2)Man(a1-3)[GlcNAc(b1-4)][GlcNAc(b1-2)Man(a1-6)]Man(b1-4)GlcNAc(b1-4)[Fuc(a1-6)]GlcNAc
# Summary of the method: as §1
# [6] = target: GlcNAc(b1-2)[GlcNAc(b1-4)]Man(a1-3)[GlcNAc(b1-2)Man(a1-6)]Man(b1-4)GlcNAc(b1-4)GlcNAc
# Summary of the method: as §1
# [7] = target: GlcNAc(b1-2)[GlcNAc(b1-4)]Man(a1-3)[GlcNAc(b1-4)][GlcNAc(b1-2)Man(a1-6)]Man(b1-4)GlcNAc(b1-4)GlcNAc
# Summary of the method: as §1
# [8] = target: GlcNAc(b1-2)[GlcNAc(b1-4)]Man(a1-3)[GlcNAc(b1-4)][GlcNAc(b1-2)[GlcNAc(b1-6)]Man(a1-6)]Man(b1-4)GlcNAc(b1-4)GlcNAc
# Summary of the method: as §1
# [9] = target: GlcNAc(b1-2)[GlcNAc(b1-4)]Man(a1-3)[GlcNAc(b1-4)][GlcNAc(b1-2)[GlcNAc(b1-6)]Man(a1-6)]Man(b1-4)GlcNAc(b1-4)[Fuc(a1-6)]GlcNAc
# Summary of the method: as §1
# [10] = target: GlcNAc(b1-2)[GlcNAc(b1-6)]Man(a1-6)[GlcNAc(b1-2)Man(a1-3)]Man(b1-4)GlcNAc(b1-4)GlcNAc
# Summary of the method: as §1
# [11] = target: GlcNAc(b1-2)[GlcNAc(b1-6)]Man(a1-6)[GlcNAc(b1-2)Man(a1-3)]Man(b1-4)GlcNAc(b1-4)[Fuc(a1-6)]GlcNAc
# Summary of the method: as §1
# [12] = target: GlcNAc(b1-2)[GlcNAc(b1-6)]Man(a1-6)[GlcNAc(b1-4)][GlcNAc(b1-2)Man(a1-3)]Man(b1-4)GlcNAc(b1-4)GlcNAc
# Summary of the method: as §1
# GlcNAc(b1-3)Fuc = target: GlcNAc(b1-3)Fuc
# Summary of the method: as §1
# GlcNAc(b1-3)Gal = target: GlcNAc(b1-3)Gal
# Summary of the method: as §1
# [13] = target: GlcNAc(b1-3)Gal(b1-3)GalNAc
# Summary of the method: as §1
# GlcNAc(b1-3)Gal(b1-4)Glc = target: GlcNAc(b1-3)Gal(b1-4)Glc
# Summary of the method: as §1
# [14] = target: GlcNAc(b1-3)Gal(b1-4)GlcNAc
# Summary of the method: as §1
# [15] = target: GlcNAc(b1-3)Gal(b1-4)GlcNAc(b1-2)Man(a1-3)[GlcNAc(b1-3)Gal(b1-4)GlcNAc(b1-2)Man(a1-6)]Man(b1-4)GlcNAc(b1-4)GlcNAc
# Summary of the method: as §1
# [16] = target: GlcNAc(b1-3)Gal(b1-4)GlcNAc(b1-2)Man(a1-3)[GlcNAc(b1-3)Gal(b1-4)GlcNAc(b1-2)Man(a1-6)]Man(b1-4)GlcNAc(b1-4)[Fuc(a1-6)]GlcNAc
# Summary of the method: as §1
# [17] = target: GlcNAc(b1-3)Gal(b1-4)GlcNAc(b1-2)[GlcNAc(b1-3)Gal(b1-4)GlcNAc(b1-6)]Man(a1-6)[GlcNAc(b1-3)Gal(b1-4)GlcNAc(b1-2)Man(a1-3)]Man(b1-4)GlcNAc(b1-4)GlcNAc
# Summary of the method: as §1
# [18] = target: GlcNAc(b1-3)Gal(b1-4)GlcNAc(b1-3)Gal(b1-4)GlcNAc
# Summary of the method: as §1
# [19] = target: GlcNAc(b1-3)Gal(b1-4)GlcNAc(b1-3)Gal(b1-4)GlcNAc(b1-2)Man(a1-3)[GlcNAc(b1-3)Gal(b1-4)GlcNAc(b1-3)Gal(b1-4)GlcNAc(b1-2)Man(a1-6)]Man(b1-4)GlcNAc(b1-4)GlcNAc
# Summary of the method: as §1
binder,measurement,setting,value
"AntigenI/IIA3VP1 (Streptococcus mutans), C9E3B4 (protein) AANEADYQAKLTAYQTELARVQKANADAKAAYEAAVAANNAANAALTAENTAIKKRNADAKADYEAKLAKYQADLAKYQKDLADYPVKLKAYEDEQASIKAALAELEKHKNEDGNLTEPSAQNLVYDLEPNANLSLTTDGKFLKASAVDDAFSKSTSKAKYDQKILQLDDLDITNLEQSNDVASSMELYGNFGDKAGWSTTVSNNSQVKWGSVLLERGQSATATYTNLQNSYYNGKKISKIVYKYTVDPKSKFQGQKVWLGIFTDPTLGVFASAYTGQVEKNTSIFIKNEFTFYDEDGKPINFDNALLSVASLNREHNSIEMAKDYSGKFVKISGSSIGEKNGMIYATDTLNFKQGEGGSRWTMYKNSQAGSGWDSSDAPNSWYGAGAIKMSGPNNYVTVGATSATNVMPVSDMPVVPGKDNTDGKKPNIWYSLNGKIRAVNVPKVTKEKPTPPVKPTAPTKPTYETEKPLKPAPVAPNYEKEPTPPTRLEHHHHHH",glycan array binding signal (z-score),[1],-1.06
same,glycan array binding signal (z-score),[2],-0.622
same,glycan array binding signal (z-score),[3],-0.727
same,glycan array binding signal (z-score),[4],-1.11
same,glycan array binding signal (z-score),[5],1.46
same,glycan array binding signal (z-score),[6],-0.123
same,glycan array binding signal (z-score),[7],-1.35
same,glycan array binding signal (z-score),[8],-0.895
same,glycan array binding signal (z-score),[9],-0.588
same,glycan array binding signal (z-score),[10],0.082
same,glycan array binding signal (z-score),[11],0.954
same,glycan array binding signal (z-score),[12],-0.814
same,glycan array binding signal (z-score),GlcNAc(b1-3)Fuc,-1.02
same,glycan array binding signal (z-score),GlcNAc(b1-3)Gal,-0.153
same,glycan array binding signal (z-score),[13],-0.295
same,glycan array binding signal (z-score),GlcNAc(b1-3)Gal(b1-4)Glc,-1.25
same,glycan array binding signal (z-score),[14],0.116
same,glycan array binding signal (z-score),[15],-0.32
same,glycan array binding signal (z-score),[16],0.425
same,glycan array binding signal (z-score),[17],0.979
same,glycan array binding signal (z-score),[18],-0.33
same,glycan array binding signal (z-score),[19],2.19

# Exported with tabs: part of the list above
binder	measurement	setting	value
AntigenI/IIA3VP1 (Streptococcus mutans), C9E3B4 (protein) AANEADYQAKLTAYQTELARVQKANADAKAAYEAAVAANNAANAALTAENTAIKKRNADAKADYEAKLAKYQADLAKYQKDLADYPVKLKAYEDEQASIKAALAELEKHKNEDGNLTEPSAQNLVYDLEPNANLSLTTDGKFLKASAVDDAFSKSTSKAKYDQKILQLDDLDITNLEQSNDVASSMELYGNFGDKAGWSTTVSNNSQVKWGSVLLERGQSATATYTNLQNSYYNGKKISKIVYKYTVDPKSKFQGQKVWLGIFTDPTLGVFASAYTGQVEKNTSIFIKNEFTFYDEDGKPINFDNALLSVASLNREHNSIEMAKDYSGKFVKISGSSIGEKNGMIYATDTLNFKQGEGGSRWTMYKNSQAGSGWDSSDAPNSWYGAGAIKMSGPNNYVTVGATSATNVMPVSDMPVVPGKDNTDGKKPNIWYSLNGKIRAVNVPKVTKEKPTPPVKPTAPTKPTYETEKPLKPAPVAPNYEKEPTPPTRLEHHHHHH	glycan array binding signal (z-score)	[4]	-1.11
same	glycan array binding signal (z-score)	[5]	1.46
